HELM strings list residues between dots; [ac] is acetyl, [am] amide, other brackets name non-standard units.
Assay: general procedure: solution-phase peptide synthesis
Details: late stage modification step

PEPTIDE1{Y.[dA].G}|PEPTIDE2{Y.[dA].G}|CHEM1{[DACH]}$PEPTIDE1,CHEM1,3:R2-1:R1|PEPTIDE2,CHEM1,3:R2-1:R2$$$V2.0
step yield: 98%

From patent publication US5061691A (Kabushiki Kaisha Vitamin Kenkyuso, priority 1987, dated 1991)
